Experimental data as given in PMC9597257.

Chains of the proteins cited; added tags and fusions are not shown. Lines headed by an entry give the natural chain unless they say otherwise; changes in a name come on top.
UniProt A8E4Q6: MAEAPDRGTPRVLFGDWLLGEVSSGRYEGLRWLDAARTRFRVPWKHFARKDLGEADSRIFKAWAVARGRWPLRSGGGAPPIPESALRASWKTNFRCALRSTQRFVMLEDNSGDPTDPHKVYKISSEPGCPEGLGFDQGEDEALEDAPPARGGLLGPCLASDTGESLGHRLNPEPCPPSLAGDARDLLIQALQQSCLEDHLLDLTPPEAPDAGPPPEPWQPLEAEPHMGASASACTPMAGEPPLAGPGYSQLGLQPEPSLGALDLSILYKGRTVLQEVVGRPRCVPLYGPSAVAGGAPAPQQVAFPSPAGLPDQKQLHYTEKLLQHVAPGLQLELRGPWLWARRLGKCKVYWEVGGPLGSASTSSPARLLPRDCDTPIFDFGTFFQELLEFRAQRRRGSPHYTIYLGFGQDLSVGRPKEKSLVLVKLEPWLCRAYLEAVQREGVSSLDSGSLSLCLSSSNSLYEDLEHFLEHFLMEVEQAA

These substances were tested against T1, cyclic guanosine monophosphate-adenosine monophosphate synthase (cGAS) (Bos taurus (endogenous in bovine bladder tissue)) (UniProt E1BGN7) (assay: co-IP; 1 mg total protein extract of bovine bladder samples (RIPA buffer), anti-cGAS antibody, 1 h at 4°C, Protein A/G-Plus Agarose overnight at 4°C, four washes in lysis buffer, western blot).
T1 sequence: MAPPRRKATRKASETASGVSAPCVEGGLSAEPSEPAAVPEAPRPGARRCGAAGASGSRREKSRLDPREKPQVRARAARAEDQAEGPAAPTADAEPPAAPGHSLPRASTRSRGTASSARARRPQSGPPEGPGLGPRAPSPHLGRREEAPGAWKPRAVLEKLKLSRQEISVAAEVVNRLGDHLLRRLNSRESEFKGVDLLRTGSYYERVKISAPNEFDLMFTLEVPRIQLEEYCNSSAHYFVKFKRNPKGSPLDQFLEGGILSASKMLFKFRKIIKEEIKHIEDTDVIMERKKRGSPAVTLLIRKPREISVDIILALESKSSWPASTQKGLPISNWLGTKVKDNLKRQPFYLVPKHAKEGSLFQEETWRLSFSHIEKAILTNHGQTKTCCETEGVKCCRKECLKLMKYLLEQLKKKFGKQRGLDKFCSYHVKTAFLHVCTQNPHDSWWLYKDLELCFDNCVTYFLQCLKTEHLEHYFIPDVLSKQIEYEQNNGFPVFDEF

Substance	binding
bovine papillomavirus (BPV) E5 oncoprotein	no binding

What follows are substances tested against T2, stimulator of interferon genes (STING) (Bos taurus (endogenous in bovine bladder tissue)) (UniProt Q2KI99) (assay: co-IP; 1 mg total protein extract of bovine bladder samples (RIPA buffer), anti-STING antibody, 1 h at 4°C, Protein A/G-Plus Agarose overnight at 4°C, four washes in lysis buffer, western blot).
T2 sequence: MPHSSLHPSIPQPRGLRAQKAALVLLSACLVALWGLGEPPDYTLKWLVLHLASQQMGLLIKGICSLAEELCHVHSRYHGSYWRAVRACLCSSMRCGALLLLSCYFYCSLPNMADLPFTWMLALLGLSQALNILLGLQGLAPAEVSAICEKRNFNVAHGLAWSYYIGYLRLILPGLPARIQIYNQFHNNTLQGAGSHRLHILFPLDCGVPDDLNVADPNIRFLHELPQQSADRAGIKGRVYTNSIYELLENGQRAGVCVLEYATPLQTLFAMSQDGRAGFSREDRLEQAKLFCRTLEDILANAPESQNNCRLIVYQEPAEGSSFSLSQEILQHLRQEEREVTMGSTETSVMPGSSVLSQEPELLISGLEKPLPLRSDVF

Substance	binding
TANK-binding kinase 1 (TBK1)	binds
ELKS	binds
IRF7 (from UniProt A8E4Q6)	binds
bovine papillomavirus (BPV) E5 oncoprotein	binds
MEKK3	binds

No constants are given. Whether binding was seen depends on the method and setting. Binding seen in cells or lysates may run through a third protein. For part of these data: A result given as binding can be weak or reduced; the word gives no strength.
